Measurements reported in PubChem BioAssay AID1259425 (University of Nebraska Medical Center, 2018).

- Test: 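Compare each knockdown with KSR1 silencing using changes in marker transcripts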 (primary screen)
- Cells: HCT116 human colon cancer cells
- Knock-down reagent: siRNA pool against human genes, 50 nM siRNA
- Read-out: 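mRNA of six signature genes measured together by branched-DNA assay after 50 nM siRNA pool, blank removed, divided by geometric mean of two housekeeping genes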
- Scale: BNIP3L mRNA: higher = more BNIP3L transcript after knockdown; NDRG1 mRNA: higher = more NDRG1 transcript after knockdown
The whole screen tested about 14,000 reagents; below is a part drawn at random. A reagent listed more than once was tested more than once; the source does not tell the runs apart. Not all columns of the deposit are shown. Not given: the time to read-out.

How did the screen score RMND5B?
BNIP3L mRNA, set 1: 0.131; NDRG1 mRNA, set 1: 0.118

How did the screen score PBDC1?
BNIP3L mRNA, set 1: 0.0799; NDRG1 mRNA, set 1: 0.0917

What did the screen give for SSPN?
BNIP3L mRNA, set 1: 0.195; NDRG1 mRNA, set 1: 0.12

With SLC35B1, how do the results read?
BNIP3L mRNA, set 1: 0.0514; NDRG1 mRNA, set 1: 0.107

How did the screen score MRPL39?
BNIP3L mRNA, set 1: 0.0814; NDRG1 mRNA, set 1: 0.172

For ZNF649, what was measured?
BNIP3L mRNA, set 1: 0.0764; NDRG1 mRNA, set 1: 0.279

With NEURL1, what does the deposit list?
BNIP3L mRNA, set 1: 0.0988; NDRG1 mRNA, set 1: 0.0845

What is on record for ZDHHC16?
BNIP3L mRNA, set 1: 0.23; NDRG1 mRNA, set 1: 0.308

What is on record for TOLLIP?
BNIP3L mRNA, set 1: 0.0883; NDRG1 mRNA, set 1: 0.121

For TOLLIP, what was measured?
BNIP3L mRNA, set 1: 0.0475; NDRG1 mRNA, set 1: 0.145

For GRAMD1C, how do the results read?
BNIP3L mRNA, set 1: 0.1; NDRG1 mRNA, set 1: 0.215

What did the screen give for MC1R?
BNIP3L mRNA, set 1: 0.252; NDRG1 mRNA, set 1: 0.238

What is on record for SERPINI2?
BNIP3L mRNA, set 1: 0.0801; NDRG1 mRNA, set 1: 0.165

How did the screen score SCN1B?
BNIP3L mRNA, set 1: 0.17; NDRG1 mRNA, set 1: 0.236

Which result is listed for HVCN1?
BNIP3L mRNA, set 1: 0.168; NDRG1 mRNA, set 1: 0.378

For HDLBP, how do the results read?
BNIP3L mRNA, set 1: 0.158; NDRG1 mRNA, set 1: 0.148

With SRSF6, what does the deposit list?
BNIP3L mRNA, set 1: 0.0751; NDRG1 mRNA, set 1: 0.166

Entries above whose gene name begins with T or t (2):
TOLLIP | BNIP3L mRNA, set 1: 0.0883; NDRG1 mRNA, set 1: 0.121
TOLLIP | BNIP3L mRNA, set 1: 0.0475; NDRG1 mRNA, set 1: 0.145

The results go on.
For SPATA9, how do the results read?
BNIP3L mRNA, set 1: 0.135; NDRG1 mRNA, set 1: 0.122

For UHMK1, how do the results read?
BNIP3L mRNA, set 1: 0.0694; NDRG1 mRNA, set 1: 0.053

How did the screen score HAMP?
BNIP3L mRNA, set 1: 0.105; NDRG1 mRNA, set 1: 1.22

What is on record for GMPR?
BNIP3L mRNA, set 1: 0.0605; NDRG1 mRNA, set 1: 0.117

What is on record for MLF2?
BNIP3L mRNA, set 1: 0.0509; NDRG1 mRNA, set 1: 0.0672

Which result is listed for FMO1?
BNIP3L mRNA, set 1: 0.0866; NDRG1 mRNA, set 1: 0.124

With DRC8, what was measured?
BNIP3L mRNA, set 1: 0.129; NDRG1 mRNA, set 1: 0.318

For BCO1, how do the results read?
BNIP3L mRNA, set 1: 0.0925; NDRG1 mRNA, set 1: 0.123

What did the screen give for ARHGEF3?
BNIP3L mRNA, set 1: 0.122; NDRG1 mRNA, set 1: 0.223

With CCDC70, what was measured?
BNIP3L mRNA, set 1: 0.0875; NDRG1 mRNA, set 1: 0.0545

With MRTFA, what does the deposit list?
BNIP3L mRNA, set 1: 0.0805; NDRG1 mRNA, set 1: 0.0562
